# Assay results: PubChem BioAssay AID588742 (Southern Research Specialized Biocontainment Screening …, 2011)
# The list shows a part of the results, in another mix than the full data. Results with a measured potency or affinity are listed apart. Active and inactive are the calls of the source. How the calls were made is not given here.
# Assay: Vero cell cytotoxicity, cytotoxicity control for flavivirus capping enzyme inhibitors (AID 588742)
# Conditions: Vero cells viability, cytotoxicity counter-screen; at 40 µM (top of the series)
row,Compound,viability
1,O=C1NN(c2ccccc2)C(=O)/C1=C/c1ccc(Sc2ccc(Cl)cc2)o1,inactive: 95.4%
